PubChem BioAssay AID602196, INSERM | 2012
Assay: 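Genes whose knock-down alters cisplatin killing of lung cancer cells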. Cells: human A549 lung cancer cells. Reagents: siRNA pair against human genes. Timing: 48 h transfection before cisplatin; time from cisplatin to read-out not stated. Challenge: cisplatin at a dose killing half of control-siRNA cells; exact dose and duration not given. Detection: 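Cisplatin cell death as a shift from the 50% death seen with control siRNA; siRNAs toxic or growth-blocking alone scored 0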. Reading the numbers: two-siRNA summed score (-2 to +2): higher = both siRNAs protect from cisplatin killing; -2 means both sensitise; mean protection from cisplatin (shift in death): higher = protection from cisplatin killing. Rule for the call: 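siRNAs harmful alone (LDH or WST-1) get 0; others get +1 for less and -1 for more cisplatin killing; genes are active when the two siRNAs give the same sign, summing to ±2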. Meaning of the calls: active = both siRNAs shift cisplatin killing the same way; inactive = no consistent shift, or siRNA harmful alone.
This is an unselected part of about 23,000 deposited reagents. 455 of all reagents (2%) count as active. 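Active includes both protection and sensitisation; some change values fall well beyond the stated -50 to +50 range.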 Further read-outs or replicates are left out here. Not given: the amount of reagent.

After knock-down of PLEKHA2 (pleckstrin homology domain containing A2), the screen gave two-siRNA summed score (-2 to +2) = 1; mean protection from cisplatin (shift in death) (%) = 6.7; inactive. RAB36 (RAB36, member RAS oncogene family) scored two-siRNA summed score (-2 to +2) = -1; mean protection from cisplatin (shift in death) (%) = -14.1; inactive. Depletion of KLK13 (kallikrein related peptidase 13) resulted in: two-siRNA summed score (-2 to +2) = 0; mean protection from cisplatin (shift in death) (%) = 12; inactive. For RPTOR (regulatory associated protein of MTOR complex 1), the entry reads two-siRNA summed score (-2 to +2) = 0; mean protection from cisplatin (shift in death) (%) = -7.1; inactive. FLJ32810 showed two-siRNA summed score (-2 to +2) = 0; mean protection from cisplatin (shift in death) (%) = 2.8; inactive. DLEU1 (deleted in lymphocytic leukemia 1) scored two-siRNA summed score (-2 to +2) = 1; mean protection from cisplatin (shift in death) (%) = 2.4; inactive.

LOC390299 scored two-siRNA summed score (-2 to +2) = 0; mean protection from cisplatin (shift in death) (%) = 6.6; inactive. For OR5M1 (olfactory receptor family 5 subfamily M member 1), the values are two-siRNA summed score (-2 to +2) = 0; mean protection from cisplatin (shift in death) (%) = 2.8; inactive. After knock-down of RSPO1 (R-spondin 1), the record shows two-siRNA summed score (-2 to +2) = 0; mean protection from cisplatin (shift in death) (%) = 2.3; inactive. Depletion of SYTL4 (synaptotagmin like 4) gave: two-siRNA summed score (-2 to +2) = 0; mean protection from cisplatin (shift in death) (%) = -4.7; inactive. Knock-down of ST8SIA4 (ST8 alpha-N-acetyl-neuraminide alpha-2,8-sialyltransferase 4) gave: two-siRNA summed score (-2 to +2) = 0; mean protection from cisplatin (shift in death) (%) = -1.5; inactive. MZF1 (myeloid zinc finger 1) gave two-siRNA summed score (-2 to +2) = 0; mean protection from cisplatin (shift in death) (%) = -1.2; inactive.

Entries above whose gene name begins with R or r:
RAB36 (RAB36, member RAS oncogene family): two-siRNA summed score (-2 to +2) = -1; mean protection from cisplatin (shift in death) (%) = -14.1; call = inactive
RPTOR (regulatory associated protein of MTOR complex 1): two-siRNA summed score (-2 to +2) = 0; mean protection from cisplatin (shift in death) (%) = -7.1; call = inactive
RSPO1 (R-spondin 1): two-siRNA summed score (-2 to +2) = 0; mean protection from cisplatin (shift in death) (%) = 2.3; call = inactive
